Data as given in PubChem BioAssay AID1508597 (Cure First, 2020)
The deposit covers about 2,100 reagents; shown is a part drawn at random. 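Calls flag viability under 80% in either arm, not effects specific to rucaparib; the reference for percent is not stated.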 Unmarked entries are inactive. No sequences are given here. Not stated in the record: the 100% reference.

Aim: 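Survival screen with siRNA in ovarian cancer cells derived from patients, with or without rucaparib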 (primary screen)
System: human ovarian carcinoma lines grown from tumours: OCI-P5x (papillary serous) and OCI-C5x (clear cell)
Reagents: siRNA pool against human genes, 1.25 pmol siRNA per well
Time to read-out: 72 h or 96 h, depending on the cell culture
Treatment: rucaparib 20 µM (about IC30) or vehicle, present until read-out
Read-out: 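Luminescent ATP-based viability assay read 72 or 96 h after transfection, depending on culture, given as normalised percent viability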
Scale: viability, normalised: higher = more viable cells remaining
Active means: 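Active when normalised viability falls below 80 percent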
Meaning of the calls: active = viability under 80%; inactive = viability 80% or more

target	rucaparib or vehicle	cell line	technical replicate	viability, normalised (%)
PRKG1 (protein kinase cGMP-dependent 1)	Rucaparib	OCI-C5x (clear cell)	1	52.3 (active)
PRKG1 (protein kinase cGMP-dependent 1)	Rucaparib	OCI-C5x (clear cell)	2	53.4 (active)
PRKG1 (protein kinase cGMP-dependent 1)	Rucaparib	OCI-C5x (clear cell)	3	45.4 (active)
PRKG1 (protein kinase cGMP-dependent 1)	Rucaparib	OCI-P5x (serous)	1	76.9 (active)
PRKG1 (protein kinase cGMP-dependent 1)	Rucaparib	OCI-P5x (serous)	2	76.6 (active)
PRKG1 (protein kinase cGMP-dependent 1)	Rucaparib	OCI-P5x (serous)	3	72 (active)
PRKG1 (protein kinase cGMP-dependent 1)	Vehicle	OCI-C5x (clear cell)	1	55.3 (active)
PRKG1 (protein kinase cGMP-dependent 1)	Vehicle	OCI-C5x (clear cell)	2	53.8 (active)
PRKG1 (protein kinase cGMP-dependent 1)	Vehicle	OCI-C5x (clear cell)	3	68.3 (active)
PRKG1 (protein kinase cGMP-dependent 1)	Vehicle	OCI-P5x (serous)	1	54.4 (active)
PRKG1 (protein kinase cGMP-dependent 1)	Vehicle	OCI-P5x (serous)	2	86.6
PRKG1 (protein kinase cGMP-dependent 1)	Vehicle	OCI-P5x (serous)	3	86.9
PTAR1 (protein prenyltransferase alpha subunit repeat containing 1)	Rucaparib	OCI-C5x (clear cell)	1	44.3 (active)
PTAR1 (protein prenyltransferase alpha subunit repeat containing 1)	Rucaparib	OCI-C5x (clear cell)	2	42.4 (active)
PTAR1 (protein prenyltransferase alpha subunit repeat containing 1)	Rucaparib	OCI-C5x (clear cell)	3	42.5 (active)
PTAR1 (protein prenyltransferase alpha subunit repeat containing 1)	Rucaparib	OCI-P5x (serous)	1	42.3 (active)
PTAR1 (protein prenyltransferase alpha subunit repeat containing 1)	Rucaparib	OCI-P5x (serous)	2	50.3 (active)
PTAR1 (protein prenyltransferase alpha subunit repeat containing 1)	Rucaparib	OCI-P5x (serous)	3	46.6 (active)
PTAR1 (protein prenyltransferase alpha subunit repeat containing 1)	Vehicle	OCI-C5x (clear cell)	1	45 (active)
PTAR1 (protein prenyltransferase alpha subunit repeat containing 1)	Vehicle	OCI-C5x (clear cell)	2	55.6 (active)
PTAR1 (protein prenyltransferase alpha subunit repeat containing 1)	Vehicle	OCI-C5x (clear cell)	3	47.9 (active)
PTAR1 (protein prenyltransferase alpha subunit repeat containing 1)	Vehicle	OCI-P5x (serous)	1	66.3 (active)
PTAR1 (protein prenyltransferase alpha subunit repeat containing 1)	Vehicle	OCI-P5x (serous)	2	72.3 (active)
PTAR1 (protein prenyltransferase alpha subunit repeat containing 1)	Vehicle	OCI-P5x (serous)	3	94.7
